Measured values reported in publication PMC10465527.
Changes are numbered by the printed parent chain. Like-named read-outs stand apart in the source and are kept apart here. These are yes or no findings as the source states them, for the method shown. Binding seen in cells or lysates may run through a third protein. Some binding calls cover weakened binding; strength is not graded here. For part of these data: Tags and fused reporters may be left off the sequences shown. Each block holds one molecule with its values, some of them ahead of it.

Protein sequences, listed by entry. Tags and fused reporters are not part of them.
UniProt P30153: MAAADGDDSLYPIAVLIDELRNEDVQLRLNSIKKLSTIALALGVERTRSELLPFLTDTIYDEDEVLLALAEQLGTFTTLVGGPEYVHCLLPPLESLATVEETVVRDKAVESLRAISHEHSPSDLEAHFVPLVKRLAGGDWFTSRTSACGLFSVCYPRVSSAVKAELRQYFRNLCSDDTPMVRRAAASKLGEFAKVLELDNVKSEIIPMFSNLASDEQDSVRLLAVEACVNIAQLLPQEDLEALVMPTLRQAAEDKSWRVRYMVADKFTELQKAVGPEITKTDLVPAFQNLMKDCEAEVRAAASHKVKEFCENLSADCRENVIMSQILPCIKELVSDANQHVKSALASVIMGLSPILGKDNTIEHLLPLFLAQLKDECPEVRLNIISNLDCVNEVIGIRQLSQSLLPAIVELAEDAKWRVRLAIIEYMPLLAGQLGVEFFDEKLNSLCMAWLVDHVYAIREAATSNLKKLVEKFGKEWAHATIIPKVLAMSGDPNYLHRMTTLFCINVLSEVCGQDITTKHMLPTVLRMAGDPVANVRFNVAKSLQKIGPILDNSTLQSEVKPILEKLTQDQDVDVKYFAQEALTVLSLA
UniProt Q969H0: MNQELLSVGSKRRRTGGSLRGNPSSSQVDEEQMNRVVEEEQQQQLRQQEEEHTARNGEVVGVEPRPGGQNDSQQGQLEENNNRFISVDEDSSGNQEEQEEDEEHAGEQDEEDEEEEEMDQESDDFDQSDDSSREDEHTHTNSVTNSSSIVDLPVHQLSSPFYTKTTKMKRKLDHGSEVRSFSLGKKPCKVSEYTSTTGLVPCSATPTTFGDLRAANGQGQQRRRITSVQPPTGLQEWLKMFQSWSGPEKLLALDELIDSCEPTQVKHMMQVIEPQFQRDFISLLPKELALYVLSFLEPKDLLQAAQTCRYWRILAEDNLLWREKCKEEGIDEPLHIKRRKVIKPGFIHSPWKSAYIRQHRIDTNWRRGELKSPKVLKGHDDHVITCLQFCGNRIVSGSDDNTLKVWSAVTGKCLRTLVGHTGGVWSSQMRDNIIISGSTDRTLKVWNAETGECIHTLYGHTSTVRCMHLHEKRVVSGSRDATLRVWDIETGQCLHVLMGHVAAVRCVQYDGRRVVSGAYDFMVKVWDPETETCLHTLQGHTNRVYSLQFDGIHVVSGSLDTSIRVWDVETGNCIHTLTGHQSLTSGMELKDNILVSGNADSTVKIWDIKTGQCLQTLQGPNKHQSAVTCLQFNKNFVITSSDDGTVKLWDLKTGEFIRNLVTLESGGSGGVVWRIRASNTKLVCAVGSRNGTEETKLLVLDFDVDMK
UniProt Q9Y297: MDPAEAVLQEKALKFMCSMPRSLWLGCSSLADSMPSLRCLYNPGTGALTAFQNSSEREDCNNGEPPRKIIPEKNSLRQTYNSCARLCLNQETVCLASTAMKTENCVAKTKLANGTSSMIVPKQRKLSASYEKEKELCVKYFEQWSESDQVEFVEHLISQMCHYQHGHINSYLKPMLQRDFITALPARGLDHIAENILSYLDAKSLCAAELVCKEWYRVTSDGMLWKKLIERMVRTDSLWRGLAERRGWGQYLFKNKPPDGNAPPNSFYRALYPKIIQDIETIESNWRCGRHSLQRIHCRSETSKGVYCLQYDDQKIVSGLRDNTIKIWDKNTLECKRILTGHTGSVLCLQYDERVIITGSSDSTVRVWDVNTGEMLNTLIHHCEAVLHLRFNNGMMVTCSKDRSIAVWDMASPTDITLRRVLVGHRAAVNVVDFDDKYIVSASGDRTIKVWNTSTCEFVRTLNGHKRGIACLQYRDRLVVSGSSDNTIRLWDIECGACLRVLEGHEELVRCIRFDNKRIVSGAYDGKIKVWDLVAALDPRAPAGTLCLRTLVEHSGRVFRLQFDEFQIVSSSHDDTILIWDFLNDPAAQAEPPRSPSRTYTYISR
UniProt Q15172: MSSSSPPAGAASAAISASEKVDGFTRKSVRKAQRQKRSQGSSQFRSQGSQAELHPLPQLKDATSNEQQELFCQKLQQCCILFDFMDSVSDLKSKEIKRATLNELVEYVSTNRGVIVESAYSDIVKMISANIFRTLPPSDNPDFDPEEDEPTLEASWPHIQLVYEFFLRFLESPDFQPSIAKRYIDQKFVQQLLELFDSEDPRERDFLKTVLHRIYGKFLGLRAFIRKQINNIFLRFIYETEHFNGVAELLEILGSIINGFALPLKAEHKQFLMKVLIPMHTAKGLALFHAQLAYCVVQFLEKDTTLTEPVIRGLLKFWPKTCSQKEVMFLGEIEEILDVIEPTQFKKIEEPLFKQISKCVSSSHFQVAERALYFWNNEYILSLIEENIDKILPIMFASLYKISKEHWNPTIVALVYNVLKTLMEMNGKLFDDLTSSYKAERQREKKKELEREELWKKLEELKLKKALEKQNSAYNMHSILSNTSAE
UniProt P23443: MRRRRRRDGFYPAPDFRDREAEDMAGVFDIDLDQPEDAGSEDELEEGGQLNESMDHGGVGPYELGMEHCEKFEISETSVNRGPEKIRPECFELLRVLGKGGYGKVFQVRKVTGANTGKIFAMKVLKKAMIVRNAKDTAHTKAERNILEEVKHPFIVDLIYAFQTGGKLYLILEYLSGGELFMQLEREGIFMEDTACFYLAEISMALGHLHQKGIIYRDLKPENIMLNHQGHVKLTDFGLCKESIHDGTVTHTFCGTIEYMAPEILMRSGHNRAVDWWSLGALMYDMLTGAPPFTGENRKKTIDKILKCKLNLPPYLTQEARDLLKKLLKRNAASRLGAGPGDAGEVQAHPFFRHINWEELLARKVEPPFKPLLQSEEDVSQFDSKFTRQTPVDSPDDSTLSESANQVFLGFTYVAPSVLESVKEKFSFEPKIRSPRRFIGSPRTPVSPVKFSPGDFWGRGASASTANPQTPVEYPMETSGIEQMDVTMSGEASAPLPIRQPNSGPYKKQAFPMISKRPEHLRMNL
UniProt Q15648: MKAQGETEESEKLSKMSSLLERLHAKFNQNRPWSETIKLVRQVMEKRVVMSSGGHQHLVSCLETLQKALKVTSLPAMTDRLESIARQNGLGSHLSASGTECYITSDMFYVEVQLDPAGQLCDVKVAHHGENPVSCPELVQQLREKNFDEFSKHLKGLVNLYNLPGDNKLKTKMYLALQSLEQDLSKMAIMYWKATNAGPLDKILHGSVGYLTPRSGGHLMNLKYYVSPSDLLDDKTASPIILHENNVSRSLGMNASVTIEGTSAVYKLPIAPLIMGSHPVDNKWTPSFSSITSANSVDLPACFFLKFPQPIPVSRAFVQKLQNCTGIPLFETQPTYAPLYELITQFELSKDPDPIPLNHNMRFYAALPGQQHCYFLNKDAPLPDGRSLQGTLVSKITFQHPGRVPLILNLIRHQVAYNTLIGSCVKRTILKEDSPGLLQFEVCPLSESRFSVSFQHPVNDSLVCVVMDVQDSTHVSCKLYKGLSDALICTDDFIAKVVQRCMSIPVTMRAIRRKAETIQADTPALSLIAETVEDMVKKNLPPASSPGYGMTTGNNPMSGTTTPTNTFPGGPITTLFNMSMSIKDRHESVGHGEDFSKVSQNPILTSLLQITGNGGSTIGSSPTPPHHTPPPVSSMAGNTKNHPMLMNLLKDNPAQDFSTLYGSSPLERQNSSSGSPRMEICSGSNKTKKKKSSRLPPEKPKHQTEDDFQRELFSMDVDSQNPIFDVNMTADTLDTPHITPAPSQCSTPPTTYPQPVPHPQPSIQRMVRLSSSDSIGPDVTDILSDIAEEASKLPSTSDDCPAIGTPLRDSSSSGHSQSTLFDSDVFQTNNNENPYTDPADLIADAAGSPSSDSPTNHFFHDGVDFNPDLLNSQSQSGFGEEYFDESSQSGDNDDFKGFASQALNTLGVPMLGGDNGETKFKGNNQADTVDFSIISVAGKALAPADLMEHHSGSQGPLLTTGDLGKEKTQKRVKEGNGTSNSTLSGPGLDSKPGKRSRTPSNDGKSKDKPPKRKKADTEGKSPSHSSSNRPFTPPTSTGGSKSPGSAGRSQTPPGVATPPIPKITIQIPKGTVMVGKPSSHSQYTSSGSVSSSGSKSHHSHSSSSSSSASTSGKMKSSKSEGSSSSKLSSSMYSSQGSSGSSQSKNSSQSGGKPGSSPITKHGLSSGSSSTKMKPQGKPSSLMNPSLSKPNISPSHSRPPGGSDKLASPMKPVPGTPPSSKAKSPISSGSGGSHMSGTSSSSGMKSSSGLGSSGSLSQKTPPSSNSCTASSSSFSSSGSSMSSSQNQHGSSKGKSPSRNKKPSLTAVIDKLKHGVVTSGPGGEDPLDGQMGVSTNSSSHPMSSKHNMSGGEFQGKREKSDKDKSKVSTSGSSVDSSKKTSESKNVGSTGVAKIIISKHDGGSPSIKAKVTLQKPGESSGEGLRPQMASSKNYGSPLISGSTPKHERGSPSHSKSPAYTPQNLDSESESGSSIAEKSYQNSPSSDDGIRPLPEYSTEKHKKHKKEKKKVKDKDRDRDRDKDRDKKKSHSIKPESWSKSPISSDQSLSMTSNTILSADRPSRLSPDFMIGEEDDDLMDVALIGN

Legend:
[1] = molecular target: T1, V5-LCMT1 (S12A) (UniProt Q9UIC8); experiment: co-IP; anti-V5; lysates of HEK293-T cells transfected with V5-LCMT1 constructs, grown with 5 μM MLN4924 for 6 h (Fig. 5k) or serum-starved 24 h and stimulated with EGF for 6 h (Fig. 5l); immunoblot
T1 sequence: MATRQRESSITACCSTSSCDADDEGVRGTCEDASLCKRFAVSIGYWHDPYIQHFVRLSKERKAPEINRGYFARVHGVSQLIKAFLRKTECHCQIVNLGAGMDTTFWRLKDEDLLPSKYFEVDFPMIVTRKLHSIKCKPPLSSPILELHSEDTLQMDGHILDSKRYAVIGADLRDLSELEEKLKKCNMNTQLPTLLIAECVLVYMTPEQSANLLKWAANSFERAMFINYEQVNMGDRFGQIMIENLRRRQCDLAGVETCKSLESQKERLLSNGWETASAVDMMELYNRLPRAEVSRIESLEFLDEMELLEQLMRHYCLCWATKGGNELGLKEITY

[2] = molecular target: T2, V5-LCMT1 (S8/9/12A) (UniProt Q9UIC8); experiment: as above
T2 sequence: T1 sequence with S8A, S9A

[3] = molecular target: T3, V5-LCMT1 (S8A) (UniProt Q9UIC8); experiment: as above
T3 sequence: T1 sequence with S8A, A12S

[4] = molecular target: T4, V5-LCMT1 (S9A) (UniProt Q9UIC8); experiment: as above
T4 sequence: T1 sequence with S9A, A12S

[5] = molecular target: V5-LCMT1 wild type (leucine carboxyl methyltransferase 1) (UniProt Q9UIC8); experiment: as above
[6] = molecular target: V5-PP2A-Aα (UniProt P30153); experiment: co-IP; V5 antibody coupled to Dynabeads, 30 min at 4 °C with lysates of LNCaP shNTC or shLCMT1 cells with V5-PP2A-Aα; EGFP as negative IP control; immunoblot
[7] = molecular target: V5-LCMT1 wild type (leucine carboxyl methyltransferase 1) (UniProt Q9UIC8); experiment: co-IP; reciprocal immunoprecipitation using FLAG-S6K1 and V5-LCMT1 (Supplementary Fig. 6g)
[8] = molecular target: FLAG-tagged FBXW7 (UniProt Q969H0); experiment: co-IP; anti-FLAG M2 beads, 2 h at 4 °C; NP40 buffer lysates of HEK293-T cells transfected with empty vector, FLAG-FBXW7 or FLAG-β-TrCP, treated with 5 μM MLN4924 for 6 h; immunoblot
[9] = molecular target: FLAG-tagged β-TrCP (UniProt Q9Y297); experiment: as above
[10] = molecular target: B56α expressed from V245 pCEP-4HA B56α (UniProt Q15172); experiment: co-IP; B56α antibody; lysates of HEK293-T cells co-transfected with B56α and HA-MED1 wild type or 2A mutants, 72 h post transfection; immunoblot
[11] = molecular target: GST-B56α (UniProt Q15172); experiment: pull-down; purified GST-B56α loaded on glutathione Sepharose beads, 2–3 mg nuclear protein lysate overnight at 4 °C, four washes with PBS; immunoblot; only the target purified
[12] = molecular target: FLAG-S6K1 (ribosomal protein S6 kinase 1) (UniProt P23443); experiment: co-IP; reciprocal immunoprecipitation using FLAG-S6K1 and V5-LCMT1 (Supplementary Fig. 6g)
[13] = molecular target: V5-PP2A-Aα (UniProt P30153); experiment: co-IP; V5 antibody coupled to Dynabeads, 30 min at 4 °C with lysates of LNCaP shNTC or shLCMT1 cells with V5-PP2A-Aα; EGFP as negative IP control; immunoblot; remark: listed apart in the source

binding [1]: no binding
binding [2]: no binding
binding [3]: no binding
binding [4]: no binding
binding [5]: binds
Molecule: β-TrCP (endogenous) (from UniProt Q9Y297 1-605)

binding [6]: binds
Molecule: B56α regulatory subunit of PP2A (PPP2R5/B56 family) (from UniProt Q15172 1-486)

binding [7]: binds
Molecule: FLAG-S6K1 (ribosomal protein S6 kinase 1) (from UniProt P23443 1-525) (enzyme)

binding [8]: no binding
binding [9]: binds
Molecule: LCMT1 (endogenous) (from UniProt Q9UIC8 1-334) (enzyme)

binding [10]: binds
binding [11]: binds
Molecule: HA-MED1 wild type (from UniProt Q15648 1-1581)

binding [11]: binds
Molecule: MED1 (endogenous) (from UniProt Q15648 1-1581)

binding [12]: binds
Molecule: V5-LCMT1 wild type (leucine carboxyl methyltransferase 1) (from UniProt Q9UIC8 1-334) (enzyme)

binding [13]: binds
B1: STRN (Striatin) regulatory subunit of PP2A (protein, UniProt O43815 1-780)
chain: MDEQAGPGVFFSNNHPGAGGAKGLGPLAEAAAAGDGAAAAGAARAQYSLPGILHFLQHEWARFEVERAQWEVERAELQAQIAFLQGERKGQENLKKDLVRRIKMLEYALKQERAKYHKLKYGTELNQGDMKPPSYDSDEGNETEVQPQQNSQLMWKQGRQLLRQYLQEVGYTDTILDVKSKRVRALLGFSSDVTDREDDKNQDSVVNGTEAEVKETAMIAKSELTDSASVLDNFKFLESAAADFSDEDEDDDVDGREKSVIDTSTIVRKKALPDSGEDRDTKEALKEFDFLVTSEEGDNESRSAGDGTDWEKEDQCLMPEAWNVDQGVITKLKEQYKKERKGKKGVKRPNRSKLQDMLANLRDVDELPSLQPSVGSPSRPSSSRLPEHEINRADEVEALTFPPSSGKSFIMGADEALESELGLGELAGLTVANEADSLTYDIANNKDALRKTWNPKFTLRSHFDGIRALAFHPIEPVLITASEDHTLKMWNLQKTAPAKKSTSLDVEPIYTFRAHKGPVLCVVMSSNGEQCYSGGTDGLIQGWNTTNPNIDPYDSYDPSVLRGPLLGHTDAVWGLAYSAAHQRLLSCSADGTLRLWNTTEVAPALSVFNDTKELGIPASVDLVSSDPSHMVASFSKGYTSIFNMETQQRILTLESNVDTTANSSCQINRVISHPTLPISITAHEDRHIKFYDNNTGKLIHSMVAHLEAVTSLAVDPNGLYLMSGSHDCSIRLWNLESKTCIQEFTAHRKKFEESIHDVAFHPSKCYIASAGADALAKVFV

binding [13]: binds
B2: PR130 regulatory subunit of PP2A (protein, UniProt Q06190-1 1-1150)
chain: MAATYRLVVSTVNHYSSVVIDRRFEQAIHYCTGTCHTFTHGIDCIVVHHSVCADLLHIPVSQFKDADLNSMFLPHENGLSSAEGDYPQQAFTGIPRVKRGSTFQNTYNLKDIAGEAISFASGKIKEFSFEKLKNSNHAAYRKGRKVKSDSFNRRSVDLDLLCGHYNNDGNAPSFGLLRSSSVEEKPLSHRNSLDTNLTSMFLQNFSEEDLVTQILEKHKIDNFSSGTDIKMCLDILLKCSEDLKKCTDIIKQCIKKKSGSSISEGSGNDTISSSETVYMNVMTRLASYLKKLPFEFMQSGNNEALDLTELISNMPSLQLTPFSPVFGTEQPPKYEDVVQLSASDSGRFQTIELQNDKPNSRKMDTVQSIPNNSTNSLYNLEVNDPRTLKAVQVQSQSLTMNPLENVSSDDLMETLYIEEESDGKKALDKGQKTENGPSHELLKVNEHRAEFPEHATHLKKCPTPMQNEIGKIFEKSFVNLPKEDCKSKVSKFEEGDQRDFTNSSSQEEIDKLLMDLESFSQKMETSLREPLAKGKNSNFLNSHSQLTGQTLVDLEPKSKVSSPIEKVSPSCLTRIIETNGHKIEEEDRALLLRILESIEDFAQELVECKSSRGSLSQEKEMMQILQETLTTSSQANLSVCRSPVGDKAKDTTSAVLIQQTPEVIKIQNKPEKKPGTPLPPPATSPSSPRPLSPVPHVNNVVNAPLSINIPRFYFPEGLPDTCSNHEQTLSRIETAFMDIEEQKADIYEMGKIAKVCGCPLYWKAPMFRAAGGEKTGFVTAQSFIAMWRKLLNNHHDDASKFICLLAKPNCSSLEQEDFIPLLQDVVDTHPGLTFLKDAPEFHSRYITTVIQRIFYTVNRSWSGKITSTEIRKSNFLQTLALLEEEEDINQITDYFSYEHFYVIYCKFWELDTDHDLYISQADLSRYNDQASSSRIIERIFSGAVTRGKTIQKEGRMSYADFVWFLISEEDKRNPTSIEYWFRCMDVDGDGVLSMYELEYFYEEQCERMEAMGIEPLPFHDLLCQMLDLVKPAVDGKITLRDLKRCRMAHIFYDTFFNLEKYLDHEQRDPFAVQKDVENDGPEPSDWDRFAAEEYETLVAEESAQAQFQEGFEDYETDEPASPSEFGNKSNKILSASLPEKCGKLQSVDEE
